# Laboratory results reported in US20240400677A1.
# Amino acid sequences for entries named in this document (tags omitted). A change or cut given only in a name is not applied to a line headed by its entry. Chains listed by the source or under a name are the forms on record and can include a tag or linker. Residues count along the entry.
# human SIRPα V2-His monomer protein (P78324, form named): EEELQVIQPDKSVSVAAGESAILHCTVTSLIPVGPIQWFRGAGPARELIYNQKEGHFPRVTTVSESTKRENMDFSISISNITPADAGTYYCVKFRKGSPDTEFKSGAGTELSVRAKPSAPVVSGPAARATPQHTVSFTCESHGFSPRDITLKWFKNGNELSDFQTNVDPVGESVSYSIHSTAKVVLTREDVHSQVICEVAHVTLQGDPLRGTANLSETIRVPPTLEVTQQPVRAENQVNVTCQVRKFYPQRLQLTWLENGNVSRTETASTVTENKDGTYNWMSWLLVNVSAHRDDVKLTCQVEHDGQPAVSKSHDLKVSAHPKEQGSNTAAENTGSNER
# UniProt O00241, residues 30-371: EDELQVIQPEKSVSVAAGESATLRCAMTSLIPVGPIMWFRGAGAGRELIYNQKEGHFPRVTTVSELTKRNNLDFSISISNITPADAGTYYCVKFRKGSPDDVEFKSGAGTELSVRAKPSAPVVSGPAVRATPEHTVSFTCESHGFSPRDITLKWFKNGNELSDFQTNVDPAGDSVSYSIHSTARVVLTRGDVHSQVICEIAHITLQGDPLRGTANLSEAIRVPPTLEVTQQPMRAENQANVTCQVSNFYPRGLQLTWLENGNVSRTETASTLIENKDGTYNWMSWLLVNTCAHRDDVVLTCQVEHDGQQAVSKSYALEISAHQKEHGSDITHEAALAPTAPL
# UniProt Q9P1W8: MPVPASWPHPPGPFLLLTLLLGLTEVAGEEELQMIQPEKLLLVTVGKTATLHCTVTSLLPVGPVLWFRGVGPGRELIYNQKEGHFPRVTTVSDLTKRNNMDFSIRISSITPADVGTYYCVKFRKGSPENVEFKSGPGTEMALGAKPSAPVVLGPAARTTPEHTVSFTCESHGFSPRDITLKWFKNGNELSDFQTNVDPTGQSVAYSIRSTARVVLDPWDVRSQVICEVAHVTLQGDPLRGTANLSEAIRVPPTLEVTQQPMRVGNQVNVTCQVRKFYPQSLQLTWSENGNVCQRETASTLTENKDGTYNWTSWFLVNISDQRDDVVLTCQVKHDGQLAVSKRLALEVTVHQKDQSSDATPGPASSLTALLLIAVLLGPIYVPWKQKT
# No constants are given. Whether binding was seen depends on the method and setting. Some results given as binding are weak or reduced against the parent protein; the word gives no strength.
# What was measured:
# [1] = molecular target: cynomolgus monkey SIRPα-His monomer protein (cynomolgus monkey); test: BLI Octet, captured scFv PPE, cyno SIRP
# [2] = molecular target: human SIRPα V2-His monomer protein (human) (UniProt P78324); test: BLI
# [3] = molecular target: human SIRPβ1-His monomer protein (human) (UniProt O00241); test: BLI
# [4] = molecular target: extracellular binding domain of human SIRPγ (plate-coated) (human) (UniProt Q9P1W8); test: competition ELISA, coated SIRPγ ECD, antibody 1 h then 10 µg/mL biotinylated CD47-Fc (blocked ligand), streptavidin-HRP
# [5] = molecular target: human SIRPγ on stably transfected CHO cells (human) (UniProt Q9P1W8); test: flow cytometry, CHO transfectants, anti-human IgG
# [6] = molecular target: cynomolgus monkey SIRPγ on CHO cells (cynomolgus monkey); test: flow cytometry, CHO transfectants, anti-human IgG
# [7] = molecular target: extracellular binding domain of human SIRPγ (plate-coated) (human) (UniProt Q9P1W8); test: ELISA, coated SIRP ECD (2 µg/mL), anti-human IgG, luminescence
# [8] = molecular target: Cynomolgus Monkey SIRPγ (plate-coated extracellular domain); test: as above
Binder,binding [1],binding [4],binding [5],binding [6],binding [7],binding [8],binding [2],binding [3]
"Antibody 14 (scFv, V domains shown) VH: QVQLVQSGAEVKKPGASVKVSCKASGYTFTSYYMHWVRQAPGQGLEWMGWVDPNNGDTGYAQKFQGRVTMTRDTSTSTVYMELSSLRSEDTAVYYCARDNWGSLDVWGKGTTVTVSS VL: DIVMTQSPLSLPVTPGEPASISCRSSQSLLHSNGYNYLDWYLQKPGQSPQLLIYAASTLQSGVPDRFSGSGSGTDFTLKISRVEAEDVGVYYCMQGLQTLYSFGQGTKLEIK",binds,,,,,,no binding (tested: <0.02 nm at 115 s; 500 nM),no binding (tested: <0.02 nm at 115 s; 500 nM)
"Antibody 11 (scFv, V domains shown) VH: QVQLVQSGAEVKKPGASVKVSCKASGYTFTSYDINWVRQAPGQGLEWMGWMNPNSGNTGYAQKFQGRVTMTRDTSTSTVYMELSSLRSEDTAVYYCAKGAVAGTYYYYGMDVWGQGTTVTVSS VL: DIQMTQSPSSLSASVGDRVTITCRASQTINNYLNWYQQKPGKAPKLLIYDASNLETGVPSRFSGSGSGTDFTLTISSLQPEDFATYYCQQANSFPLTFGQGTKVEIK",binds,,,,,,no binding (tested: <0.02 nm at 115 s; 500 nM),no binding (tested: <0.02 nm at 115 s; 500 nM)

# The next lines start with results.
binding [1],binding [4],binding [5],binding [6],binding [7],binding [8],Binder,binding [2],binding [3]
binds,,,,,,"Antibody 46 (scFv, V domains shown) VH: QVQLVQSGAEVKKPGASVKVSCKASGYTFSSYAISWVRQAPGQGLEWMGWMDPNSGNTGYAQKFQGRVTMTRDTSTSTVYMELSSLRSEDTAVYYCARESSYYYDSSGYYPGWYFDLWGRGTLVTVSS VL: DIQMTQSPSSLSASVGDRVTITCQASQDISNYLNWYQQKPGKAPKLLIYAASTLQTGVPSRFSGSGSGTDFTLTISSLQPEDFATYYCQQSYSTPWTFGPGTKVDIK",no binding (tested: <0.02 nm at 115 s; 500 nM),no binding (tested: <0.02 nm at 115 s; 500 nM)
,binds,binds,binds,binds,binds,"Antibody 54 (antibody, V domains shown) VH: QVQLVQSGAEVKKPGASVKVSCKASGYSFSDYYMHWVRQAPGQGLEWMGWMSPNSGNTGYAQKFQGRVTMTRDTSTSTVYMELSSLRSEDTAVYYCARQREEYGHYYYGMDVWGQGTMVTVSS VL: EIVMTQSPATLSVSPGERATLSCRASQSLGSTYLAWYQQKPGQAPRLLIYGASTRATGIPARFSGSGSGTEFTLTISSLQSEDFAVYYCQQYYSSPPTFGQGTKVEIK",,
